{"source": "PubChem BioAssay AID264", "about": "(DTP/NCI, 2004)", "test_system": "nude mice, LX-1 lung xenograft intrarenal, tumor weight T/C", "experiment": "NCI In Vivo Anticancer Drug Screen. Data for tumor model Human Lung LX-1 Xenograft (intrarenal inoculation) in NU/NU Swiss (nude) mice", "conditions": "T/C endpoint: mean tumor weight change, higher T/C = larger tumour; for T/C: evaluated on day 11", "summary_of_the_method": "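Tumor-bearing mice receive test compound or vehicle; tumor size is then measured in each group. The treated value is divided by the vehicle value to give T/C.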", "key": {"[1]": {"conditions": "dose: 200.0 mg/kg/injection, schedule: Q04DX003 (sc), vehicle: saline"}, "[2]": {"conditions": "dose: 300.0 mg/kg/injection, schedule: Q04DX003 (sc), vehicle: saline with Tween-80"}, "[3]": {"conditions": "dose: 20.0 mg/kg/injection, schedule: Q01DX010 (sc), vehicle: saline with Tween-80"}}, "note": "The list is a part of this screen's results and no random one: it gathers tests that were run many times, whatever their T/C, doses with no T/C, and many T/C values between a quarter and a half above the control. Other doses and runs of a compound stand elsewhere. T/C is the treated group as % of the vehicle group. Schedules are NCI's codes, taken here to give the interval after Q, in days (D) or hours (H), and the number of doses after X. Some T/C values carry the count of animals alive at the toxicity check (mostly the fifth day); without a count, all were alive then. Some doses have a count of surviving animals in place of a T/C: the source files T/C as zero there, which appears to mark a toxic dose or a test without result, not a measured value. Counts of survivors are from the toxicity check (mostly the fifth day) where no day follows; animals may have died later. Some entries hold several experiments; the values are given in rising order."}
{"compound": "O=c1ssc(=Nc2ccccc2)n1-c1ccccc1", "values": [{"measurement": "T/C", "setting": "dose: 200.0 mg/kg/injection, schedule: Q01DX010 (sc), vehicle: Klucel (hydroxypropylcellulose) (HPC)", "result": "132 % of control [2 of 2 alive on day 11]"}, {"measurement": "survivor count", "setting": "dose: 800.0 mg/kg/injection, schedule: Q01DX010 (sc), vehicle: Klucel (hydroxypropylcellulose) (HPC)", "result": "0 of 3 on day 11"}]}
{"compound": "CCN=C=NCCCN(C)C", "values": [{"measurement": "survivor count", "setting": "[1]", "result": "0 of 6 on day 11"}]}
{"compound": "COc1cc2cc[n+](C)c(Cc3ccccc3)c2cc1OC", "values": [{"measurement": "survivor count", "setting": "dose: 150.0 mg/kg/injection, schedule: Q04DX003 (sc), vehicle: Klucel (hydroxypropylcellulose) (HPC)", "result": "0 of 6 on day 11"}, {"measurement": "survivor count", "setting": "dose: 300.0 mg/kg/injection, schedule: Q04DX003 (sc), vehicle: Klucel (hydroxypropylcellulose) (HPC)", "result": "0 of 6 on day 11"}]}
{"compound": "Cc1ccccc1SSc1ccccc1C", "values": [{"measurement": "T/C", "setting": "dose: 50.0 mg/kg/injection, schedule: Q01DX010 (sc), vehicle: saline with Tween-80", "result": "143 % of control"}, {"measurement": "T/C", "setting": "dose: 100.0 mg/kg/injection, schedule: Q01DX010 (sc), vehicle: saline with Tween-80", "result": "143 % of control"}]}
{"compound": "O=C(O)c1c2c(nc3ccccc13)Cc1ccccc1-2", "values": [{"measurement": "T/C", "setting": "dose: 50.0 mg/kg/injection, schedule: Q01DX010 (sc), vehicle: water", "result": "147 % of control"}, {"measurement": "survivor count", "setting": "dose: 400.0 mg/kg/injection, schedule: Q01DX010 (sc), vehicle: water", "result": "0 of 3 on day 11"}]}
{"compound": "OC(CBr)C(O)C(O)C(O)CBr", "note": "(stereo not drawn)", "values": [{"measurement": "survivor count", "setting": "dose: 120.0 mg/kg/injection, schedule: Q01DX010 (sc), vehicle: Klucel (hydroxypropylcellulose) (HPC)", "result": "1 of 2 on day 11"}, {"measurement": "survivor count", "setting": "dose: 1600.0 mg/kg/injection, schedule: Q01DX010 (sc), vehicle: Klucel (hydroxypropylcellulose) (HPC)", "result": "0 of 3 on day 11"}]}
{"compound": "C[C@H]1C[C@@H]2[C@H]([C@@H](O)C[C@@]3(C)[C@H]2CC[C@]3(O)C(=O)CO)[C@@]2(C)C=CC(=O)C=C12", "values": [{"measurement": "survivor count", "setting": "dose: 1600.0 mg/kg/injection, schedule: Q04DX003 (sc), vehicle: Klucel (hydroxypropylcellulose) (HPC)", "result": "3 of 6 on day 11"}]}
{"compound": "CCN(CC)CCCNc1nccc2c(C)c3[nH]c4ccncc4c3cc12", "values": [{"measurement": "T/C", "setting": "dose: 2.5 mg/kg/injection, schedule: Q01DX010 (sc), vehicle: other", "result": "125 % of control"}, {"measurement": "survivor count", "setting": "dose: 20.0 mg/kg/injection, schedule: Q01DX010 (sc), vehicle: other", "result": "0 of 3 on day 11"}]}
{"compound": "[CH3][Sn]([CH3])([Cl])[S]CCN", "values": [{"measurement": "survivor count", "setting": "dose: 150.0 mg/kg/injection, schedule: Q04DX003 (sc), vehicle: saline", "result": "0 of 6 on day 11"}]}
{"compound": "C=C1C(=O)O[C@@H]2[C@H](O)[C@@H](C)[C@@H]3C=CC(=O)[C@@]3(C)[C@H](OC(=O)C=C(C)C)[C@H]12", "values": [{"measurement": "survivor count", "setting": "dose: 75.0 mg/kg/injection, schedule: Q04DX003 (sc), vehicle: saline with Tween-80", "result": "2 of 6 on day 11"}]}
{"compound": "COc1cccc2c1C(=O)c1c(O)c3c(c(O)c1C2=O)C[C@@](O)(/C(CO)=N/NC(=O)c1ccc(Cl)c(Cl)c1)C[C@@H]3OC1CC(N)C(O)C(C)O1", "note": "(stereo partly drawn)", "values": [{"measurement": "survivor count", "setting": "dose: 32.0 mg/kg/injection, schedule: Q01DX010 (sc), vehicle: water", "result": "0 of 3 on day 11"}, {"measurement": "survivor count", "setting": "dose: 64.0 mg/kg/injection, schedule: Q01DX010 (sc), vehicle: water", "result": "0 of 3 on day 11"}]}
{"compound": "Oc1ccc(O)cc1", "values": [{"measurement": "survivor count", "setting": "[1]", "result": "3 of 6 on day 11"}, {"measurement": "survivor count", "setting": "dose: 400.0 mg/kg/injection, schedule: Q04DX003 (sc), vehicle: saline", "result": "1 of 6 on day 11"}]}
{"compound": "COc1cc(C(=O)N/N=C/c2cccc([N+](=O)[O-])c2)cc(OC)c1OC", "values": [{"measurement": "T/C", "setting": "[2]", "result": "146 % of control"}, {"measurement": "T/C", "setting": "dose: 600.0 mg/kg/injection, schedule: Q04DX003 (sc), vehicle: saline with Tween-80", "result": "146 % of control"}, {"measurement": "T/C", "setting": "dose: 1200.0 mg/kg/injection, schedule: Q04DX003 (sc), vehicle: saline with Tween-80", "result": "130 % of control"}]}
{"compound": "CN(C)C=O", "values": [{"measurement": "T/C", "setting": "dose: 200.0 mg/kg/injection, schedule: Q01DX010 (sc), vehicle: saline", "result": "138 % of control"}, {"measurement": "T/C", "setting": "dose: 400.0 mg/kg/injection, schedule: Q01DX010 (sc), vehicle: saline", "result": "129 % of control"}]}
{"compound": "O=C1OC(=O)[C@H]2[C@@H]1[C@H]1C=C[C@@H]2OC1=O", "values": [{"measurement": "T/C", "setting": "dose: 150.0 mg/kg/injection, schedule: Q04DX003 (sc), vehicle: suspension in saline", "result": "131 % of control"}]}
{"compound": "CC1OC(=O)C(C(C)C)NC(=O)C(C(C)C)OC(=O)C(C(C)C)NC(=O)C(C)OC(=O)C(C(C)C)NC(=O)C(C(C)C)OC(=O)C(C(C)C)NC(=O)C(C)OC(=O)C(C(C)C)NC(=O)C(C(C)C)OC(=O)C(C(C)C)NC1=O", "note": "(stereo not drawn)", "values": [{"measurement": "T/C", "setting": "dose: 5.0 mg/kg/injection, schedule: Q01DX010 (sc), vehicle: saline with Tween-80", "result": "125 % of control"}, {"measurement": "survivor count", "setting": "dose: 20.0 mg/kg/injection, schedule: Q01DX010 (ip), vehicle: saline with Tween-80", "result": "0 of 3 on day 11"}, {"measurement": "T/C", "setting": "[3]", "result": "128 % of control [2 of 3 alive on day 11]"}, {"measurement": "survivor count", "setting": "[3]", "result": "1 of 3 on day 11"}, {"measurement": "survivor count", "setting": "dose: 33.33 mg/kg/injection, schedule: Q04DX003 (ip), vehicle: saline with Tween-80", "result": "1 of 3 on day 11"}, {"measurement": "survivor count", "setting": "dose: 40.0 mg/kg/injection, schedule: Q01DX010 (ip), vehicle: saline with Tween-80", "result": "0 of 3 on day 11"}, {"measurement": "survivor count", "setting": "dose: 40.0 mg/kg/injection, schedule: Q01DX010 (sc), vehicle: saline with Tween-80", "result": "0 of 3 on day 11 and 1 of 3 on day 11"}, {"measurement": "survivor count", "setting": "dose: 133.3 mg/kg/injection, schedule: Q04DX003 (ip), vehicle: saline with Tween-80", "result": "0 of 3 on day 11"}, {"measurement": "survivor count", "setting": "dose: 133.3 mg/kg/injection, schedule: Q04DX003 (sc), vehicle: saline with Tween-80", "result": "0 of 3 on day 11"}]}
{"compound": "S=c1nc[nH]c2nc[nH]c12", "values": [{"measurement": "survivor count", "setting": "dose: 25.0 mg/kg/injection, schedule: Q01DX010 (sc), vehicle: Klucel (hydroxypropylcellulose) (HPC)", "result": "1 of 3 on day 11"}, {"measurement": "survivor count", "setting": "dose: 50.0 mg/kg/injection, schedule: Q01DX010 (sc), vehicle: Klucel (hydroxypropylcellulose) (HPC)", "result": "0 of 3 on day 11"}, {"measurement": "survivor count", "setting": "dose: 100.0 mg/kg/injection, schedule: Q01DX010 (sc), vehicle: Klucel (hydroxypropylcellulose) (HPC)", "result": "0 of 3 on day 11"}]}
{"compound": "C[C@@]1(CO)[C@H](O)CC[C@@]2(C)[C@H]1CC[C@H]1C[C@@H]3C[C@@]12CC[C@@]3(O)COC(=O)CN", "values": [{"measurement": "T/C", "setting": "dose: 88.6 mg/kg/injection, schedule: Q01DX010 (sc), vehicle: saline + alcohol", "result": "137 % of control"}, {"measurement": "T/C", "setting": "dose: 300.0 mg/kg/injection, schedule: Q01DX010 (sc), vehicle: saline + alcohol", "result": "136 % of control [4 of 6 alive on day 11]"}, {"measurement": "T/C", "setting": "dose: 125.0 micrograms/kg/injection, schedule: Q01DX010 (sc), vehicle: saline + alcohol", "result": "131 % of control"}, {"measurement": "T/C", "setting": "dose: 250.0 micrograms/kg/injection, schedule: Q01DX010 (sc), vehicle: saline + alcohol", "result": "125 % of control"}]}
{"compound": "COc1ccc(CC2C(=O)NC(C)C(=O)N(C)C3C(=O)N(C)C(Cc4ccc(O)c(c4)Oc4ccc(cc4)C3O)C(=O)NC(C)C(=O)NC(C)C(=O)N2C)cc1", "note": "(stereo not drawn)", "values": [{"measurement": "T/C", "setting": "dose: 0.25 mg/kg/injection, schedule: Q01DX010 (sc), vehicle: saline with Tween-80", "result": "138 % of control"}, {"measurement": "survivor count", "setting": "dose: 8.0 mg/kg/injection, schedule: Q01DX010 (sc), vehicle: saline with Tween-80", "result": "0 of 3 on day 11"}]}
{"compound": "CCC1=C[C@H]2CN(CCc3c([nH]c4ccccc34)[C@@](C(=O)OC)(c3cc4c(cc3OC)N(C)[C@H]3[C@@](O)(C(=O)NC)[C@H](OC(C)=O)[C@]5(CC)C=CCN6CC[C@]43[C@@H]65)C2)C1", "values": [{"measurement": "survivor count", "setting": "dose: 1.0 mg/kg/injection, schedule: Q04DX003 (sc), vehicle: water", "result": "3 of 6 on day 11"}, {"measurement": "survivor count", "setting": "dose: 8.0 mg/kg/injection, schedule: Q04DX003 (sc), vehicle: water", "result": "3 of 6 on day 11"}]}
{"compound": "CCC1CC2CN(CCc3c([nH]c4ccccc34)C(C(=O)OC)(c3cc4c(cc3OC)N(C)C3C(O)(C(=O)OC)C(OC(C)=O)C5(CC)C=CCN6CCC43C65)C2)C1", "note": "(stereo not drawn)", "values": [{"measurement": "survivor count", "setting": "dose: 8.0 mg/kg/injection, schedule: Q04DX003 (sc), vehicle: suspension in saline", "result": "0 of 6 on day 11"}, {"measurement": "survivor count", "setting": "dose: 16.0 mg/kg/injection, schedule: Q04DX003 (sc), vehicle: suspension in saline", "result": "0 of 6 on day 11"}, {"measurement": "survivor count", "setting": "dose: 32.0 mg/kg/injection, schedule: Q04DX003 (sc), vehicle: suspension in saline", "result": "0 of 6 on day 11"}]}
{"compound": "COc1cc([C@@H]2c3cc4c(cc3[C@@H](OC3OC5COC(C)OC5C(O)C3O)[C@H]3COC(=O)[C@H]23)OCO4)cc(OC)c1O", "note": "(stereo partly drawn)", "values": [{"measurement": "survivor count", "setting": "dose: 32.0 mg/kg/injection, schedule: Q01DX010 (sc), vehicle: saline", "result": "0 of 3 on day 11"}, {"measurement": "survivor count", "setting": "dose: 64.0 mg/kg/injection, schedule: Q01DX010 (sc), vehicle: saline", "result": "0 of 3 on day 11"}]}
{"compound": "BrC1c2cccc3cccc(c23)C1Br", "note": "(stereo not drawn)", "values": [{"measurement": "T/C", "setting": "dose: 150.0 mg/kg/injection, schedule: Q04DX003 (sc), vehicle: saline with Tween-80", "result": "135 % of control"}, {"measurement": "T/C", "setting": "[2]", "result": "138 % of control"}]}
